PubChem BioAssay AID1224828 – NIAID, 2016

Assay: 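Knock-downs that increase or decrease LPS-induced p65 nuclear translocation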 (primary screen)
Cells: mouse RAW264.7 G9 macrophage reporter cells (GFP-p65, Tnf promoter-mCherry)
Reagents: siRNA pool against mouse genes, 100 nM
Time to read-out: 2 days siRNA transfection, then 40 min LPS before fixation
Challenge: LPS (Salmonella minnesota R595) at 10 ng/ml
Read-out: 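Microscopy ratio of nuclear to perinuclear-ring GFP-p65 signal, scaled to the plate median; gene score is the average of two replicate robust z-scores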
Reading the numbers: p65 translocation robust z-score: higher = more nuclear NF-kappaB p65 after LPS than the plate median; nuclear/cytoplasmic p65 ratio: higher = more nuclear NF-kappaB p65
Hit rule: 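Active if robust z is above 3.3 (negative regulators) or below -1.56, the Tlr4 control median (positive regulators); activity score 50 or more; control wells not called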
Meaning of the calls: active = hit (p65 shift raised or lowered); inactive = no clear change
Here is one part, drawn at random, of about 17,000 reagents. Of all reagents, 762 (4.5%) were called active. 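Active calls include both raised and lowered p65 entry, mostly lowered; wells with fewer than 50 cells lack a z-score.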 The raw values are shown without normalisation. A number with no mark means an inactive call. Reagents against one gene are numbered here. No sequences are given here.

p65 translocation robust z-score,"nuclear/cytoplasmic p65 ratio, rep 1","nuclear/cytoplasmic p65 ratio, rep 2",low cell count flag,gene symbol,pool no.
2.15,1.74,1.43,enough cells to score,Tfcp2l1 (transcription factor CP2-like 1),1
-0.22,1.6,1.57,enough cells to score,Bmal1 (basic helix-loop-helix ARNT like 1),1
0.28,1.47,1.46,enough cells to score,Ccdc34 (coiled-coil domain containing 34),1
-1.29,1.31,1.17,enough cells to score,Hoxd12 (homeobox D12),1
0.26,1.55,1.35,enough cells to score,Fau (FAU ubiquitin like and ribosomal protein S30 fusion),1
-1.85 (active),1.3,1.28,enough cells to score,Sh2d2a (SH2 domain containing 2A),1
-0.62,1.78,1.42,enough cells to score,Ndufa6 (NADH:ubiquinone oxidoreductase subunit A6),1
-1.43,1.19,1.04,enough cells to score,PLEKHK1,1
-0.34,1.47,1.31,enough cells to score,Lmbr1l (limb region 1 like),1
0.36,1.67,1.66,enough cells to score,Atf7ip (activating transcription factor 7 interacting protein),1
-0.94,1.13,1.34,enough cells to score,Atf7ip (activating transcription factor 7 interacting protein),2
0.29,1.68,1.64,enough cells to score,Armc7 (armadillo repeat containing 7),1
,1.42,1.63,fewer than 50 cells per well; well left out of scoring,Slc35e4,1
-0.26,1.38,1.23,enough cells to score,Pglyrp4 (peptidoglycan recognition protein 4),1
0,1.66,1.69,enough cells to score,Commd7 (COMM domain containing 7),1
,1.6,1.41,fewer than 50 cells per well; well left out of scoring,Lin28a (lin-28 homolog A),1
,1.33,1.35,fewer than 50 cells per well; well left out of scoring,"Boll (boule homolog, RNA binding protein)",1
-0.06,1.47,1.55,enough cells to score,Cd70 (CD70 antigen),1
-0.53,1.44,1.27,enough cells to score,Clstn1 (calsyntenin 1),1
0.25,1.46,1.42,enough cells to score,Ifi30 (interferon gamma inducible protein 30),1
0.62,1.37,1.3,enough cells to score,Tsn (translin),1
0.11,1.35,1.48,enough cells to score,Fkbp11 (FK506 binding protein 11),1
0.37,1.51,1.27,enough cells to score,Or8d4 (olfactory receptor family 8 subfamily D member 4),1
,1.66,1.16,fewer than 50 cells per well; well left out of scoring,"Tas2r110 (taste receptor, type 2, member 110)",1
-0.15,1.49,1.58,enough cells to score,"Atad1 (ATPase family, AAA domain containing 1)",1
-0.79,1.34,1.29,enough cells to score,"Col1a1 (collagen, type I, alpha 1)",1
-0.16,1.16,1.37,enough cells to score,4930579C12Rik (RIKEN cDNA 4930579C12 gene),1
2.65,1.76,1.79,enough cells to score,Kcnmb4,1
0.16,1.59,1.83,enough cells to score,Ccdc88a (coiled coil domain containing 88A),1
0,1.43,1.53,enough cells to score,Ccdc88a (coiled coil domain containing 88A),2
1.27,1.77,1.84,enough cells to score,Ldlrap1 (low density lipoprotein receptor adaptor protein 1),1
,1.75,1.45,fewer than 50 cells per well; well left out of scoring,Mak (male germ cell-associated kinase),1
1.47,1.93,1.78,enough cells to score,Lhx9 (LIM homeobox protein 9),1
0.39,1.77,1.61,enough cells to score,Magea5 (MAGE family member A5),1
-0.03,1.55,1.55,enough cells to score,Ildr1 (immunoglobulin-like domain containing receptor 1),1
,1.34,1.22,fewer than 50 cells per well; well left out of scoring,"Card10 (caspase recruitment domain family, member 10)",1
-0.88,1.34,1.24,enough cells to score,Pudp (pseudouridine 5'-phosphatase),1
-0.41,1.34,1.16,enough cells to score,Raly (hnRNP-associated with lethal yellow),1
,1.52,1.53,fewer than 50 cells per well; well left out of scoring,Mfsd8 (major facilitator superfamily domain containing 8),1
0.42,1.53,1.37,enough cells to score,Ndst4 (N-deacetylase/N-sulfotransferase (heparin glucosaminyl) 4),1

In a second layout: entries from further up
| p65 translocation robust z-score | nuclear/cytoplasmic p65 ratio, rep 1 | nuclear/cytoplasmic p65 ratio, rep 2 | low cell count flag | gene symbol | pool no. |
| --- | --- | --- | --- | --- | --- |
| 0.62 | 1.37 | 1.3 | enough cells to score | Tsn (translin) | 1 |
| 0.11 | 1.35 | 1.48 | enough cells to score | Fkbp11 (FK506 binding protein 11) | 1 |
